Test results: patent US11185100B2 (priority 2014, dated 2021)
The match of structure and compound is tentative.

Amino acid sequences for entries named in this document (tags omitted). Residues count along the entry.
UniProt E3UMS2, 1-296: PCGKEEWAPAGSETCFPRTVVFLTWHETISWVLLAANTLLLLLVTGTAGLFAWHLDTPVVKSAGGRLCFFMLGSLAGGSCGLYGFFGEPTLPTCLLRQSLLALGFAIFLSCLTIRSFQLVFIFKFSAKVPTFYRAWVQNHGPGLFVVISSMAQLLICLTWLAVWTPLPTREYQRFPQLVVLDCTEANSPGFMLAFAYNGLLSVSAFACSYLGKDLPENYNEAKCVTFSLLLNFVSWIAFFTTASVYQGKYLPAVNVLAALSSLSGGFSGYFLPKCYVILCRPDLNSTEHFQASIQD

Molecular target: cat T1R1/T1R3 receptor (Felis catus, UniProt E3UMS2)

CC(O)C(=O)Nc1nc2c(ncn2[C@@H]2O[C@H](COP(=O)(O)O)[C@@H](O)[C@H]2O)c(=O)[nH]1 (some centres unmarked)
Activity: active | Max resp. (ΔF/F): 1.3600 ΔF/F | Max. resp. % of IMP: 140.5 % of IMP | Threshold: 0.025 mM | EC50 (read-out: EC50- with Ala): 100 µM
